Source: the supplement of paper PMC5949888
Most values lie at the floor of the assay. Slopes are relative: functional sequences can read slightly below zero.

Each substance was assayed on Saccharomyces cerevisiae PS128 hsf1 delta, HSF1(1-493) fusion (assay: growth estimate (transactivation domain function in HSF1 fusion, heat-shock survival) (a.u. (slope of normalised read count over time)); higher = stronger growth at 37°C, i.e. more transactivation activity). Conditions: library: random library.

Row | Substance | growth estimate
1 | HDYRIIRYTSKLEPRAL | < -0.25
2 | LVLGLSARA | < -0.25
3 | VCRHSSSRPGF | < -0.25
4 | CMGKLRIQWLGSRGPAGLRL | < -0.25
5 | VKWAGRS | < -0.25
6 | VTDAMGVAVWISM | < -0.25
7 | STYTGLESWRFDNQGQLLAE | < -0.25
8 | SISCQK | < -0.25
9 | CELSVDRRSGPRGV | < -0.25
10 | GYNSCCEIFFPRRGVAWPSG | < -0.25
11 | ESCP | < -0.25
12 | FALDYVGRLQAVR | -0.243
13 | MCNLPLMTMFPLE | -0.107
14 | QQM | < -0.25
15 | SGLIW | < -0.25
16 | SLKQLSIPLYVCWGRSLTPP | < -0.25
17 | EGSWVGLEGPWVDVMRHLPL | -0.216
18 | AFERPRSTRVGW | < -0.25
19 | LRCRRVRASHSSDRRVMLRS | < -0.25
20 | AVQTC | < -0.25
21 | CSLVKACDELVGHA | < -0.25
22 | ILRMTWPHYHIGWSVAHKST | < -0.25
23 | LCCPRGVFNKSGPMRCRRQA | < -0.25

Row | Substance | growth estimate
24 | HLGGWRVEGNIDCSGKTAQS | < -0.25
25 | DHDKVLTPKNSTVRANDHVY | < -0.25
26 | GGGGDIRAGDP | < -0.25
27 | GCSEAGDDTDSWTHADFGNA | 0.183
28 | TPHYH | < -0.25
29 | KIDMPPRIFGLIGGDPRLSD | < -0.25
30 | GCKSASAMAWRNQ | < -0.25
31 | RLRGRTSGFQGEFRADPQRS | < -0.25
32 | RANRCFQNRSKEARPGCR | < -0.25
33 | IDAGTLSPLKIESG | < -0.25
34 | RICLWYVATCR | < -0.25
35 | YPSRKRFQLDLACTECAPPA | < -0.25
36 | YISRFHVDSK | < -0.25
37 | SALSRSAAYTSSLSC | < -0.25
38 | ILFRWF | < -0.25
39 | GSDRLAGARVYVLRGEGDGN | < -0.25
40 | SNFFRLLGILIMPLNSSLIL | < -0.25
41 | RNWHTVKRRDKEPLLLPMTR | < -0.25
42 | RMVGRVLTRATCQIIRHAPE | < -0.25
43 | RLYGGLVSYYVVHCLMYGSL | < -0.25
44 | LGEARRT | < -0.25
45 | GASTKILRKIVRRFYFRSNA | < -0.25
46 | YSPRVD | < -0.25

Part of the list above, in markdown:

| Row | Substance | growth estimate |
| --- | --- | --- |
| 32 | RANRCFQNRSKEARPGCR | < -0.25 |
| 33 | IDAGTLSPLKIESG | < -0.25 |
| 34 | RICLWYVATCR | < -0.25 |
| 35 | YPSRKRFQLDLACTECAPPA | < -0.25 |
| 36 | YISRFHVDSK | < -0.25 |
| 37 | SALSRSAAYTSSLSC | < -0.25 |

(listing goes on)

Row | Substance | growth estimate
47 | ILSKPWGRLCTPGIVQGELE | < -0.25
48 | DSLHAIGGLG | < -0.25
49 | DPPAAL | < -0.25
50 | IVTGLMVMSAPRHPCICGGV | < -0.25
51 | GLCKHVQD | < -0.25
52 | RIGDPIFHPNRGQVSGKPRP | < -0.25
53 | FRVSCQSMQVIDASVESFDL | -0.23
54 | TRCGRDCAGYVQLSRMDPCV | < -0.25
55 | ARREEKIRNSVGILVWIHRQ | < -0.25
56 | STVTDLNRFGILNTRLVLAQ | < -0.25
57 | TQLFEVFLATPFLAV | < -0.25
58 | SYPQVNVWVIYCTLWAGSIR | < -0.25
59 | SVCCRSLRFPAGPDGGISRQ | < -0.25
60 | KVYARVFLFQLGFREASIYG | -0.246
61 | RGIVEFGLVDAPGQSCGIGE | < -0.25
62 | VTRDS | < -0.25
63 | EIVRIGPC | < -0.25
64 | ERFLGKAKQHLTSFSSIPLR | < -0.25
65 | RSYTAVRA | < -0.25
66 | GSFIGMQASVILER | < -0.25
67 | WMCRCSRSSAACDLQHPR | < -0.25
68 | TVESSAARRHGVICTDDCLT | < -0.25
69 | PTGGVMARQARHS | < -0.25

Row | Substance | growth estimate
70 | GTSAGIVQDTRFALNWVSCQ | < -0.25
71 | GTKIFAC | < -0.25
72 | SPPL | < -0.25
73 | ALS | < -0.25
74 | TQSKGMSPS | < -0.25
75 | WLFEFLIRHL | < -0.25
76 | NVLRAAG | < -0.25
77 | QEAKARRGLAFAKSARAQCG | < -0.25
78 | RTGVPG | < -0.25
79 | TVGCGSLFGQRFGV | < -0.25
80 | SILTLRALMSL | < -0.25
81 | IRLRHIESRCEGTGQ | -0.248
82 | DCI | < -0.25
83 | LYEFTALERRYSGDASDDAC | < -0.25
84 | RFMSAVRLSNFRIQIGVYIL | < -0.25
85 | CERRCCAAAATAAPLLEDFN | < -0.25
86 | TSIRRHHPP | < -0.25
87 | RPLLPRFICSITIRCTLYSV | < -0.25
88 | TILV | < -0.25
89 | LRDRGASAKGGS | < -0.25
90 | EQGWIKITNNHLLYHHQCRT | < -0.25
91 | AIKRDRLVKYEDSLSVLGL | < -0.25
92 | FLRQKGTTDGVSVPIDTALP | < -0.25

Row | Substance | growth estimate
93 | YKRARYPRVSPSVFTAGRCE | < -0.25
94 | FHSGGKARRRSQTSTDPGVC | < -0.25
95 | EMLRVVRSWRIIRLRFFGHA | < -0.25
96 | MTTKTGGHFRPQFLCSGIVN | < -0.25
97 | YIITVSISQVRDSQRGHSNS | < -0.25
98 | SFSQRLWVLRIRLRHDHPDS | < -0.25
99 | RLMWNAGGSEPAS | < -0.25
100 | LGISGRRFVRSYFEGGPQRR | < -0.25
101 | VKASVVVRARRIPVDPTKAQ | < -0.25
102 | PTEQSDIGPCISLYWTGVSA | < -0.25
103 | GASTSTSSSSVRRSE | < -0.25
104 | NATHRVIAYV | < -0.25
105 | GKWSDRDTTWVGNSEGEPAK | < -0.25
106 | QTRPSATRLITFYLITSVGS | < -0.25
107 | PVRSSHLQVWSNPETKSGA | -0.246
108 | PFWKINL | < -0.25
109 | GTYLYIGGQAQLLIRGPQPA | < -0.25
110 | FPVDGEYGDTIPSTAYSFNG | -0.0435
111 | RKGEF | < -0.25
112 | SVARIFSMI | < -0.25
113 | AVLPRLVPVIALAISGDVR | < -0.25
114 | ACWTR | < -0.25
115 | DATGGMRSGWYQER | < -0.25

Row | Substance | growth estimate
116 | LCLPAGTHKAIVSKDFI | < -0.25
117 | VCAFVEDGSYDLVVRPQTKY | < -0.25
118 | YSVLSENCVSSLNANRLFSV | < -0.25
119 | NQITLPELLFLRLKYPRDLP | < -0.25
120 | LVHRQIPITAGWVHSQSTRP | < -0.25
121 | SRMSWSMSDRAHIRDCRRGP | < -0.25
122 | TGTKYIFIAR | < -0.25
123 | SCDGRTESPRFISGVP | < -0.25
124 | WWWGADLLWGSERELENAIC | < -0.25
125 | GPQVTLSIAASRAVQ | < -0.25
126 | FGSTKK | < -0.25
127 | TLEHNPWGNACSEGEVCMDI | < -0.25
128 | AVFPVRNRISASAFRGRKGA | < -0.25
129 | LGEMTIR | -0.246
130 | RNPRVKPAFCPDRM | < -0.25
131 | FTLLHENLLTCATTLLRLQV | < -0.25
132 | IEEGPTTRAPLDNRFRSTRA | < -0.25
133 | KHVRLHGYPLPVRRTDITTV | < -0.25
134 | WGSILDAVRDRFSRFTGTGG | < -0.25
135 | RLEVQ | < -0.25
136 | ASGPKLPRF | < -0.25
137 | VYGRTARCGRATRCYHSLSS | < -0.25
138 | FRAYGEVRRTRLS | < -0.25

Row | Substance | growth estimate
139 | GCASMTELRVQWRGGSTLAD | < -0.25
140 | LTSGSPPELKSSFSGLLVFR | < -0.25
141 | LRRPDAVLGLFPKSSQTYAR | < -0.25
142 | PSRRWDSAAGHFAPIVDVIP | < -0.25
143 | LFKVAVRGRTASSAARGFRL | < -0.25
144 | TDAGVDQGSGSARSATWLNR | < -0.25
145 | SRGFFVGYDEQYNSEVRTRS | < -0.25
146 | RVEGVSGETDVERATKVAHM | < -0.25
147 | DLQK | < -0.25
148 | VPCRIQNLAITKNHCRASTM | < -0.25
149 | ALRSMRVNGGRPFWSDRAEH | < -0.25
150 | LISCYRTRGGTAGHGNLGV | < -0.25
151 | GSACGFLCVFDPFSA | < -0.253
152 | GILLSVTAECICSFRFHWQL | < -0.25
153 | GVNLEGSSSIRA | < -0.25
154 | STEN | < -0.25
155 | WGVLAGGICGSMAKPTFGGA | < -0.25
156 | HSLLISLQ | < -0.25
